Values from PubChem BioAssay AID743121 (NCATS, 2013).

Aim: 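Partners whose loss is lethal together with topoisomerase I blockade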 (primary screen)
System: MDA-MB-231 cells, a human breast cancer line
Reagent: single siRNA against human genes, 20 nM siRNA (0.8 pmol per well)
Time to read-out: 120 h (drug added 48 h after transfection, read 72 h later)
Conditions: camptothecin 20 nM (about EC30) for 72 h; vehicle 0.1% DMSO in parallel plates
Measured: 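CellTiter-Glo ATP signal, scaled to control siRNA as percent viability; sensitisation given as log2 of untreated divided by camptothecin-treated viability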
Direction: log2 vehicle/camptothecin viability: higher = stronger sensitisation to camptothecin; viability with camptothecin and viability without drug: higher = more viable cells
Active means: 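Each gene scored by redundant siRNA activity (RSA) over its individual siRNA ratios; a gene is called active at p < 0.001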
The whole screen tested about 26,000 reagents; shown is a random part of them. 167 of all reagents (0.63%) count as active. 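Calls are per gene from RSA p-values that are not deposited; an individual active-marked siRNA can sensitise only weakly.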 A number with no mark means an inactive call. The numbers tell different reagents against one gene apart. No sequences are given here.

gene | reagent no. | log2 vehicle/camptothecin viability | viability with camptothecin (% of control) | viability without drug (% of control)
BUD23 | 1 | -0.358 | 41.3 | 32.2
BUD23 | 2 | -0.374 | 59.4 | 45.9
BUD23 | 3 | -0.31 | 82.7 | 66.8
BUD23 | 4 | -0.396 | 32.1 | 24.4
SLC67A1 | 1 | -0.293 | 87.2 | 71.2
SLC67A1 | 2 | -0.0494 | 107 | 103
SLC67A1 | 3 | -0.449 | 89 | 65.2
SLC67A1 | 4 | 0.167 | 48.9 | 54.9
NDP | 1 | 0.155 | 81.2 | 90.4
NDP | 2 | -0.321 | 85.1 | 68.1
NDP | 3 | -0.265 | 114 | 95
NDP | 4 | 0.246 | 11.1 | 13.1
LRAT | 1 | -0.351 | 62.6 | 49.1
LRAT | 2 | -0.333 | 62.6 | 49.7
LRAT | 3 | -0.347 | 76.5 | 60.1
LRAT | 4 | 0.29 | 58.7 | 71.8
JAM3 | 1 | -0.281 | 73.3 | 60.4
JAM3 | 2 | 0.0349 | 94.8 | 97.1
JAM3 | 3 | 0.516 | 64.4 | 92.1

5 entries from above, ordered by “viability without drug (% of control)”, ascending:
gene | reagent no. | log2 vehicle/camptothecin viability | viability with camptothecin (% of control) | viability without drug (% of control)
SLC67A1 | 4 | 0.167 | 48.9 | 54.9
SLC67A1 | 3 | -0.449 | 89 | 65.2
NDP | 2 | -0.321 | 85.1 | 68.1
NDP | 1 | 0.155 | 81.2 | 90.4
NDP | 3 | -0.265 | 114 | 95

The listing continues:
gene | reagent no. | log2 vehicle/camptothecin viability | viability with camptothecin (% of control) | viability without drug (% of control)
CYP2J2 | 1 | -0.0895 | 91.7 | 86.1
CYP2J2 | 2 | 0.123 | 67.2 | 73.2
CYP2J2 | 3 | -0.0192 | 92.5 | 91.3
HES5 | 1 | -0.0239 | 46.2 | 45.5
HES5 | 2 | -0.0955 | 84.2 | 78.8
HES5 | 3 | -0.45 | 97.3 | 71.2
TUBA3E | 1 | -0.211 | 70.4 | 60.8
TUBA3E | 2 | -0.501 | 89.5 | 63.2
CTSB | 1 | -0.152 | 113 | 102
CTSB | 2 | -0.445 | 116 | 85.1
CTSB | 3 | -0.126 | 94.9 | 87
CTSB | 4 | -0.832 | 12.4 | 6.98
